No constants are given. Whether binding was seen depends on the method and setting. Binding seen in cells or lysates may run through a third protein. Some entries that bind do so weakly or less than the wild type.
Biological target: MLH1 in human cell extracts (human (in human cell extracts)) (UniProt P40692)
Test: co-IP; co-immunoprecipitation from human cell extracts

Chains of the proteins cited; added tags and fusions are not shown.
UniProt P40692: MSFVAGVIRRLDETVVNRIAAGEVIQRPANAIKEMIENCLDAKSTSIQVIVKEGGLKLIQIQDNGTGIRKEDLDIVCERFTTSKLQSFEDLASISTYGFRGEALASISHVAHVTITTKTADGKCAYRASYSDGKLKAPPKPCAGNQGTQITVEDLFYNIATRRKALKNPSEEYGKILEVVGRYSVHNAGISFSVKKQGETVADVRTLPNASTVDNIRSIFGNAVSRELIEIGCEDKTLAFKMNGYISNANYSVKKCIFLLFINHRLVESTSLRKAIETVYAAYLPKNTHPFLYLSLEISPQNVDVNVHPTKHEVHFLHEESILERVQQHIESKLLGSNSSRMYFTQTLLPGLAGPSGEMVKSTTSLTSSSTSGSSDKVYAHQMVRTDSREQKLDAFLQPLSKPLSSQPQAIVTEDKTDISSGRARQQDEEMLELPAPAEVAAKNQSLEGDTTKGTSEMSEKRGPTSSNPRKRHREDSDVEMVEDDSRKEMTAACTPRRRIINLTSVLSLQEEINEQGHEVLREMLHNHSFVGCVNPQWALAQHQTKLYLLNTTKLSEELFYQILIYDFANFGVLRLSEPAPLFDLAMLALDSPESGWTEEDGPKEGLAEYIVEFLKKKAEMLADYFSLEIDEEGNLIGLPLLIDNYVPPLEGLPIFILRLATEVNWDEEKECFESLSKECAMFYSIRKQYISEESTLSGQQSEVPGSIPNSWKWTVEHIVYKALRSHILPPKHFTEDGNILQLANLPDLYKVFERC
UniProt P01106: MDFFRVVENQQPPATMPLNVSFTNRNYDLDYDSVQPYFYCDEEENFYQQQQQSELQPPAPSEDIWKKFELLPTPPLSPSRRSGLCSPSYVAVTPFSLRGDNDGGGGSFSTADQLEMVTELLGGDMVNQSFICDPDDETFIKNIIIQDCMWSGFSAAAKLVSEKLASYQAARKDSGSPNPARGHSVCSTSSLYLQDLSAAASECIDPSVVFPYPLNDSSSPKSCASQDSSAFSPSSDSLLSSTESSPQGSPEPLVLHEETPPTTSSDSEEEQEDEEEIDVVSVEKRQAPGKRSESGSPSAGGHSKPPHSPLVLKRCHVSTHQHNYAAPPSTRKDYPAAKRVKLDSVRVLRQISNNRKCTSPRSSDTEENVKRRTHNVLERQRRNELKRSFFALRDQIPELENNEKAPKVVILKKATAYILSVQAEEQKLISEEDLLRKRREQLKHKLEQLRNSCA

Substance: c-MYC in human cell extracts (from UniProt P01106 1-454)
- binding: binds

Source: publication PMC2557556
